Measurements reported in PubChem BioAssay AID602196 (INSERM, 2012)
This is an unselected part of about 23,000 reagents. Over the whole deposit, 455 (2%) were called active. 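Active includes both protection and sensitisation; some change values fall well beyond the stated -50 to +50 range.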 Entries without a mark were called inactive. Reagent sequences are not shown. The record does not give: the amount of reagent.

- Aim: 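Modifiers of cisplatin sensitivity in A549 cells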
- System: human A549 lung cancer cells
- Reagents: siRNA pair against human genes
- Duration: 48 h transfection before cisplatin; time from cisplatin to read-out not stated
- Treatment: cisplatin at a dose killing half of control-siRNA cells; exact dose and duration not given
- Measured: 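Shift in cisplatin death relative to control siRNA, from -50 (all cells die) to +50 (no cells die); siRNAs harmful on their own scored 0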
- Scale: two-siRNA summed score (-2 to +2): higher = both siRNAs protect from cisplatin killing; -2 means both sensitise; mean protection from cisplatin (shift in death) and protection from cisplatin (shift in death), siRNA C and protection from cisplatin (shift in death), siRNA D: higher = protection from cisplatin killing
- Rule for the call: 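Each siRNA scores 0 if harmful alone by LDH or WST-1, otherwise +1 if it reduces and -1 if it increases cisplatin killing; a gene is active when both siRNAs agree (sum +2 or -2)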
- Calls: active = both siRNAs shift cisplatin killing the same way; inactive = no consistent shift, or siRNA harmful alone

The first 2 entries, ahead of the listing:
| Target gene | two-siRNA summed score (-2 to +2) | mean protection from cisplatin (shift in death) (%) | protection from cisplatin (shift in death), siRNA C (%) | protection from cisplatin (shift in death), siRNA D (%) |
| --- | --- | --- | --- | --- |
| CFHR2 (complement factor H related 2) | 0 | 3.2 | -0.7 | 7.1 |
| ECHDC2 (enoyl-CoA hydratase domain containing 2) | -1 | -10.7 | -15.3 | -6.2 |

The list itself, repeating the preview:
| Target gene | two-siRNA summed score (-2 to +2) | mean protection from cisplatin (shift in death) (%) | protection from cisplatin (shift in death), siRNA C (%) | protection from cisplatin (shift in death), siRNA D (%) |
| --- | --- | --- | --- | --- |
| CFHR2 (complement factor H related 2) | 0 | 3.2 | -0.7 | 7.1 |
| ECHDC2 (enoyl-CoA hydratase domain containing 2) | -1 | -10.7 | -15.3 | -6.2 |
| TET1 (tet methylcytosine dioxygenase 1) | 0 | 6.9 | 5.1 | 8.7 |
| SERINC2 (serine incorporator 2) | 0 | 2.9 | 14 | -8.2 |
| IL15 (interleukin 15) | -1 | -16.3 | -15.6 | -17.1 |
| LRRC37A (leucine rich repeat containing 37A) | 0 | 16.4 | -2.6 | 35.3 |
| RPP14 (ribonuclease P/MRP subunit p14) | 1 | 3.2 | 7.8 | -1.4 |
| CLCC1 (chloride channel CLIC like 1) | 0 | -0.2 | -1.1 | 0.6 |
| LOC440502 | 0 | 7.3 | 11.1 | 3.6 |
| SGPP2 (sphingosine-1-phosphate phosphatase 2) | 0 | 1.9 | -7.7 | 11.4 |
| LOC145780 | 0 | 13.3 | 6.4 | 20.2 |
| LOC146909 | 0 | 2.9 | -2.3 | 8.1 |
| SAMD12 (sterile alpha motif domain containing 12) | 0 | 2.7 | -5.5 | 10.8 |
| CCDC24 (coiled-coil domain containing 24) | 0 | 0.5 | -1.1 | 2.2 |
| TOB1 (transducer of ERBB2, 1) | 0 | -12.2 | 9.3 | -33.7 |
| WDR20 (WD repeat domain 20) | 0 | 8.3 | 14.4 | 2.1 |
| TMEM38A (transmembrane protein 38A) | -1 | -5.7 | -13.8 | 2.5 |
| LINC00898 (long independently transcribed non-coding RNA 898) | 1 | 27.5 | 15.2 | 39.8 |
| ASPSCR1 (ASPSCR1 tether for SLC2A4, UBX domain containing) | 0 | -5.4 | -7.7 | -3.1 |
| DPP6 (dipeptidyl peptidase like 6) | 0 | 0 | -6.9 | 6.8 |
| HPS1 (HPS1 biogenesis of lysosomal organelles complex 3 subunit 1) | 0 | 1.3 | 8.4 | -5.8 |
| ERP44 (endoplasmic reticulum protein 44) | 0 | -10.6 | -5.7 | -15.4 |
| ADCY7 (adenylate cyclase 7) | 0 | -4.1 | -2.3 | -6 |
